Reference: publication PMC8531281
No constants are given. Whether binding was seen depends on the method and setting. Binding seen in cells or lysates may run through a third protein. Some entries that bind do so weakly or less than the wild type.

By UniProt entry, the sequences of proteins in these tests, tags left out. Where a name states a change or a piece, a line headed by the entry shows the natural chain unless it says otherwise.
UniProt Q99683: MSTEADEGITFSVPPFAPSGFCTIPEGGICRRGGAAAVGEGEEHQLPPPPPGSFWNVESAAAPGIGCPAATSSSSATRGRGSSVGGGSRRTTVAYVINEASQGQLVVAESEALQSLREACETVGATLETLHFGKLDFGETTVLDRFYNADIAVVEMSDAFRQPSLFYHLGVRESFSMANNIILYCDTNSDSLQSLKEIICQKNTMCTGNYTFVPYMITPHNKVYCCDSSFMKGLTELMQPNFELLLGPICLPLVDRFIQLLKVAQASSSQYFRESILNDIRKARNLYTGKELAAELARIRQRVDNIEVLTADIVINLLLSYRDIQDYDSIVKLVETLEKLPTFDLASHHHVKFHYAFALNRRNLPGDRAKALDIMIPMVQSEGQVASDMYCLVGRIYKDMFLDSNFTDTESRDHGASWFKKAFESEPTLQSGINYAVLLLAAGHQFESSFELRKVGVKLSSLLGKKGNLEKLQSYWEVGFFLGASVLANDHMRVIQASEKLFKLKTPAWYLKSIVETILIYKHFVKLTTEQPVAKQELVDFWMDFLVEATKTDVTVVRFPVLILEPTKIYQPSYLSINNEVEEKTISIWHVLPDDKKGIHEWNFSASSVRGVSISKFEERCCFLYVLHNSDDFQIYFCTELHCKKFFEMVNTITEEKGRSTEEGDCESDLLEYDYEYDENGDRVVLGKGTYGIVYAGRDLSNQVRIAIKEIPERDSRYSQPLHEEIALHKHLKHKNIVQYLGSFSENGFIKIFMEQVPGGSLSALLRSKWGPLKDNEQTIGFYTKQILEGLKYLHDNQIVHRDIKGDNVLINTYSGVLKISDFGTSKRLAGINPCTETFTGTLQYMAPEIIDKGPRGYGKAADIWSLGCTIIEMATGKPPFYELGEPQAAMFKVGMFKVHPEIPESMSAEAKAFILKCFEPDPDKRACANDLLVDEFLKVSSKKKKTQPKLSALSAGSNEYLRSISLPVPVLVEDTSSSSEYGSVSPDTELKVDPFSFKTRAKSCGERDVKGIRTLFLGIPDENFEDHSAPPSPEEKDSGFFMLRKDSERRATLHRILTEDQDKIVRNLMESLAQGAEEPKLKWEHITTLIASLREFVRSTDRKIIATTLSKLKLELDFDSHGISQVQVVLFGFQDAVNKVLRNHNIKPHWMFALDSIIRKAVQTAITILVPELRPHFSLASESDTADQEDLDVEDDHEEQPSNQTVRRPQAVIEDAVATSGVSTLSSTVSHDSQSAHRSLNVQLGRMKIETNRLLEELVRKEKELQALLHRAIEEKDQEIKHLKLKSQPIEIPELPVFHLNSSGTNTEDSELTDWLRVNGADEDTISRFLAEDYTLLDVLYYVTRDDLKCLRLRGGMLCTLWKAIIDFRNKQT
UniProt Q8N4A0: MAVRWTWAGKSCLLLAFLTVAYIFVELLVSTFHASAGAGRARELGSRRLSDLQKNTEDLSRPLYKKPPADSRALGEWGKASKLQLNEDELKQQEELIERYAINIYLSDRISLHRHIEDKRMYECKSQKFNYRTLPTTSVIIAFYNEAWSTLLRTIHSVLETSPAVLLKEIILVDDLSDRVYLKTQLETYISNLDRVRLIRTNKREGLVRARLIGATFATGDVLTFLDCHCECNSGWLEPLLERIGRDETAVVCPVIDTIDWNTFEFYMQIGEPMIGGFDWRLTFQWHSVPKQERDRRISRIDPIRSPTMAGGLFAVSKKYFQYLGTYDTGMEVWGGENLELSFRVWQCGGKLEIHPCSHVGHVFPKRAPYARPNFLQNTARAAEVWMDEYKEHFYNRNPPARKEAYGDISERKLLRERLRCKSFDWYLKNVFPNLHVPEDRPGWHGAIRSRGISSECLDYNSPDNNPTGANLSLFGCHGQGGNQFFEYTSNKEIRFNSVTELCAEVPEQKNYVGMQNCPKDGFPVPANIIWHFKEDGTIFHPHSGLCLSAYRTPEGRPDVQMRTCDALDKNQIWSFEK

Tests used:
ASK1 (1–678) = ASK1 (1–678) (UniProt Q99683); experiment: co-IP; dimerization of ASK1 (1-678) in 293T cells, effect of GALNT4 (Fig. 6J)
HA-ASK1 = HA-ASK1 (UniProt Q99683); experiment: co-IP; 293T cells co-transfected with Flag-GALNT4 and HA-ASK1, 24 h; IP lysis buffer (20 mM Tris-HCl pH 7.4, 150 mM NaCl, 1 mM EDTA, 1% NP-40); protein G agarose with anti-FLAG or anti-HA antibody, 4 °C overnight; washes with 300 mM and 150 mM NaCl; western blot
GST-HA-ASK1 = GST-HA-ASK1 (UniProt Q99683); experiment: pull-down; GST-HA fusion purified on GST beads from eukaryotic cells, mixed with the FLAG-tagged partner overnight at 4 °C; lysis buffer 50 mM Na2HPO4 pH 8.0, 300 mM NaCl, 1% TritonX-100; western blot; only the target purified

Row | Substance | binding (ASK1 (1–678)) | binding (HA-ASK1) | binding (GST-HA-ASK1)
1 | ASK1 (1–678) (from UniProt Q99683 1-678) (domain or fragment) | binds | – | –
2 | Flag-GALNT4 (polypeptide N-acetylgalactosaminyltransferase 4) (from UniProt Q8N4A0 1-578) | – | binds | binds
3 | GALNT4 (co-expressed in the ASK1 (1–678) dimerization experiment) (from UniProt Q8N4A0 1-578) | binds | – | –
